Test results: paper PMC12864892
Results are given in words; binding and its absence hold for the method and conditions named. Binding seen in cells or lysates may run through a third protein. These calls come from enrichment with a bait or labelling near it, and not all partners need be listed.

By UniProt entry, the sequences of proteins in these tests, tags left out. Residues count along the entry.
UniProt P10909, residues 23-449: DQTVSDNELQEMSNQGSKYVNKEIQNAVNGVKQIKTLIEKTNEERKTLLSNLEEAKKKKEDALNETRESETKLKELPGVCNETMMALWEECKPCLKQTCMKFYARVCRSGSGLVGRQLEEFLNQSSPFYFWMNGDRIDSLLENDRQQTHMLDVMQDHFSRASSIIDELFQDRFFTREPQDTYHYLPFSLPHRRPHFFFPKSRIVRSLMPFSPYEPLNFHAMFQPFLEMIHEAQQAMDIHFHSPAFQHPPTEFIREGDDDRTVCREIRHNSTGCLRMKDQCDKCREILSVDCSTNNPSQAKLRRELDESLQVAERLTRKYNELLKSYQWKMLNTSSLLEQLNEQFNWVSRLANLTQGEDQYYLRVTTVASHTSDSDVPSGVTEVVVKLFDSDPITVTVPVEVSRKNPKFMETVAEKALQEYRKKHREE

Biological target: clusterin (CLU), endogenous in TNBC cells (human (endogenous in MDA-MB-468 and MDA-MB-231)) (UniProt P10909)
Assay: affinity purification with mass spectrometry; Co-IP of CLU from MDA-MB-468 cells combined with mass spectrometry (CLU interactome)

binding: binds
B1: plakophilin 3 (PKP3), endogenous in TNBC cells (protein, UniProt Q9Y446 1-797)
chain: MQDGNFLLSALQPEAGVCSLALPSDLQLDRRGAEGPEAERLRAARVQEQVRARLLQLGQQPRHNGAAEPEPEAETARGTSRGQYHTLQAGFSSRSQGLSGDKTSGFRPIAKPAYSPASWSSRSAVDLSCSRRLSSAHNGGSAFGAAGYGGAQPTPPMPTRPVSFHERGGVGSRADYDTLSLRSLRLGPGGLDDRYSLVSEQLEPAATSTYRAFAYERQASSSSSRAGGLDWPEATEVSPSRTIRAPAVRTLQRFQSSHRSRGVGGAVPGAVLEPVARAPSVRSLSLSLADSGHLPDVHGFNSYGSHRTLQRLSSGFDDIDLPSAVKYLMASDPNLQVLGAAYIQHKCYSDAAAKKQARSLQAVPRLVKLFNHANQEVQRHATGAMRNLIYDNADNKLALVEENGIFELLRTLREQDDELRKNVTGILWNLSSSDHLKDRLARDTLEQLTDLVLSPLSGAGGPPLIQQNASEAEIFYNATGFLRNLSSASQATRQKMRECHGLVDALVTSINHALDAGKCEDKSVENAVCVLRNLSYRLYDEMPPSALQRLEGRGRRDLAGAPPGEVVGCFTPQSRRLRELPLAADALTFAEVSKDPKGLEWLWSPQIVGLYNRLLQRCELNRHTTEAAAGALQNITAGDRRWAGVLSRLALEQERILNPLLDRVRTADHHQLRSLTGLIRNLSRNARNKDEMSTKVVSHLIEKLPGSVGEKSPPAEVLVNIIAVLNNLVVASPIAARDLLYFDGLRKLIFIKKKRDSPDSEKSSRAASSLLANLWQYNKLHRDFRAKGYRKEDFLGP
